# Drug screen on melanoma cell lines: cell count

Values as published with doi:10.1371/journal.pone.0140310, rounded.

Compounds and concentrations:
etoposide: COc1cc([C@@H]2c3cc4c(cc3[C@@H](O[C@@H]3O[C@@H]5CO[C@@H](C)O[C@H]5[C@H](O)[C@H]3O)[C@H]3COC(=O)[C@H]23)OCO4)cc(OC)c1O at 20 nM
NVP-TAE684: COc1cc(N2CCC(N3CCN(C)CC3)CC2)ccc1Nc1ncc(Cl)c(Nc2ccccc2S(=O)(=O)C(C)C)n1 at 80 nM
SU6656: CN(C)S(=O)(=O)c1ccc2c(c1)/C(=C/c1cc3c([nH]1)CCCC3)C(=O)N2 at 400 nM
STA-4783: CN(NC(=O)CC(=O)NN(C)C(=S)c1ccccc1)C(=S)c1ccccc1 at 6 nM
OSI-906: C[C@]1(O)C[C@@H](c2nc(-c3ccc4ccc(-c5ccccc5)nc4c3)c3c(N)nccn32)C1 at 400 nM

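The test systems are human melanoma cell lines, treated with a pair of drugs for 72 h and then stained and imaged. Values are the number of DAPI-stained nuclei as a percentage of the DMSO control: 100 is no effect, lower means fewer cells. Concentrations were fixed for each drug; these are the lower of two levels, a fifth of the higher. No replicate spread is given; individual values may be noisy.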
Only some of the drugs and lines screened are listed, without regard to their results.
An entry leaves out what has no value listed here.

- STA-4783 + etoposide : IST-MEL1: 80.6; COLO 829: 69.0; IPC-298: 91.8; C32: 78.1; LOX IMVI: 109; MEL-HO: 93.4; LB2518-MEL: 81.9; A101D: 82.5; G-361: 97.1; COLO 792: 60.0; A375: 21.1; COLO 800: 60.3; A2058: 68.8
- SU6656 + etoposide : IST-MEL1: 88.1; COLO 829: 111; IPC-298: 97.4; C32: 106; LOX IMVI: 149; MEL-HO: 95.6; LB2518-MEL: 97.5; A101D: 82.6; G-361: 105; COLO 792: 99.7; A375: 99.4; COLO 800: 100; A2058: 97.7
- STA-4783 + OSI-906 : IST-MEL1: 65.2; COLO 829: 55.6; IPC-298: 93.5; C32: 72.7; LOX IMVI: 84.5; MEL-HO: 76.4; LB2518-MEL: 49.7; A101D: 74.4; G-361: 51.8; COLO 792: 55.0; A375: 11.3; COLO 800: 41.8; A2058: 67.1
- OSI-906 + etoposide : IST-MEL1: 102; COLO 829: 98.2; IPC-298: 90.1; C32: 95.7; LOX IMVI: 78.3; MEL-HO: 98.6; LB2518-MEL: 98.2; A101D: 94.7; G-361: 90.3; COLO 792: 85.3; A375: 76.4; COLO 800: 53.8; A2058: 87.1
- STA-4783 + NVP-TAE684 : IST-MEL1: 78.0; COLO 829: 47.2; IPC-298: 99.0; C32: 56.1; LOX IMVI: 87.7; MEL-HO: 103; LB2518-MEL: 100; A101D: 73.1; G-361: 74.3; COLO 792: 69.4; A375: 15.7; 501mel: 28.6; COLO 800: 75.4; A2058: 55.3
- OSI-906 + NVP-TAE684 : IST-MEL1: 98.8; COLO 829: 113; IPC-298: 96.9; C32: 91.0; LOX IMVI: 103; MEL-HO: 95.2; LB2518-MEL: 114; A101D: 87.6; G-361: 91.2; COLO 792: 91.7; 501mel: 45.2; COLO 800: 73.7; A2058: 95.5
- NVP-TAE684 + etoposide : IST-MEL1: 101; COLO 829: 109; IPC-298: 99.6; C32: 92.5; LOX IMVI: 76.4; MEL-HO: 85.7; LB2518-MEL: 97.4; A101D: 113; G-361: 103; COLO 792: 94.2; 501mel: 88.5; COLO 800: 59.7; A2058: 85.8
- NVP-TAE684 + SU6656 : IST-MEL1: 99.2; COLO 829: 97.0; IPC-298: 92.1; C32: 90.9; LOX IMVI: 228; MEL-HO: 94.4; LB2518-MEL: 99.8; A101D: 94.6; G-361: 91.6; COLO 792: 79.7; A375: 87.5; 501mel: 79.4; COLO 800: 84.2; A2058: 90.1